Assay: in vitro
Details: PAMPA, pH 7.4
Procedure: Penetration across the BBB is an essential property for compounds targeting the CNS. […] The filter membrane of the donor plate was coated with PBL (Polar Brain Lipid, Avanti, AL, USA) in dodecane (4 µL of 20 mg/mL PBL in dodecane) and the acceptor well was filled with 300 µL of PBS pH 7.4 buffer ([…]). Tested compounds were dissolved first in DMSO and that diluted with PBS pH 7.4 to reach the final concentration 100 µM in the donor well. […] 300 µL of the donor solution was added to the donor wells ([…]) and the donor filter plate was carefully put on the acceptor plate so that coated membrane was “in touch” with both donor solution and acceptor buffer. Test compound diffused from the donor well through the lipid membrane (Area = 0.28 cm^2) to the acceptor well. The concentration of the drug in both donor and the acceptor wells was assessed after 3, 4, 5 and 6 h of incubation in quadruplicate using the UV plate reader Synergy HT (Biotek, Winooski, VT, USA) at the maximum absorption wavelength of each compound.

Work on `CC(C)NCC(O)COc1ccc(CC(N)=O)cc1` (stereo not shown) [Atenolol] yielded a Papp at 100 µM of 1.02 ± 0.37 ×10⁻⁶ cm/s.

From article PMC6273488, “Synthesis and Biological Evaluation of Benzochromenopyrimidinones as Cholinesterase Inhibitors and Potent Antioxidant, Non-Hepatotoxic Agents for Alzheimer’s Disease” (Molecules, 2016)
